Laboratory results: PubChem BioAssay AID330 (DTP/NCI, 2004)
The list is a part of this screen's results and no random one: it is rich in T/C values a quarter to a half above the control, in often repeated tests (any T/C) and in doses without a T/C. Further doses and runs are listed elsewhere. T/C gives the treated animals as a percentage of the vehicle group. Some entries give survivors of the animals treated and no T/C: the source files T/C as zero there, which appears to mark a toxic dose or a test without result, not a measured value. Some survivor counts are full or nearly so, which does not show that the dose was tolerated: the source hardly ever lists a survival T/C far under the control, and the zero likely stands for such cases as well. Survivors were counted at the toxicity check, usually on the fifth day, unless a day is given; later deaths do not show. Schedule codes are those of the source, taken here to give the interval after Q, in days (D) or hours (H), and the number of doses after X. Some molecules as drawn cover several salts, stereoisomers or complexes of the source; a dose is that of the sample tested. Some doses were run more than once; the results are listed from low to high. Where survival is the endpoint, this PubChem deposit counts one and a half times the control or more as active, and values a quarter to a half above the control carry no call in these data; other NCI protocols may use other cut-offs. Some T/C values carry the count of animals alive at the toxicity check (mostly the fifth day); without a count, all were alive then.

Test system: P388 leukemia ip, CD2F1 mice, survival T/C
Assay: NCI In Vivo Anticancer Drug Screen. Data for tumor model P388 Leukemia (intraperitoneal) in CD2F1 (CDF1) mice
Conditions: T/C endpoint: median survival time, higher T/C = longer survival
[1] = dose: 240.0 mg/kg/injection, schedule: Q01DX005 (ip), vehicle: saline with Tween-80
[2] = dose: 200.0 mg/kg/injection, schedule: Q01DX009 (ip), vehicle: Klucel (hydroxypropylcellulose) (HPC)
[3] = dose: 50.0 mg/kg/injection, schedule: Q01DX009 (ip), vehicle: Klucel (hydroxypropylcellulose) (HPC)
[4] = dose: 12.5 mg/kg/injection, schedule: Q01DX005 (ip), vehicle: saline with Tween-80

## O=NN(C(=O)NC1CCC(C(=O)O)CC1)C1CCC(C(=O)O)CC1 (stereo not drawn)
dose: 400.0 mg/kg/injection, schedule: Q01DX001 (ip), vehicle: distilled water + Tween-80
  survivor count: 0 of 6

## CC(C)(C)OC(=O)NC(CCCCNC(=O)OCc1ccccc1)C(=O)O (stereo not drawn)
dose: 200.0 mg/kg/injection, schedule: Q01DX005 (ip), vehicle: distilled water + Tween-80 + alcohol
  survivor count: 3 of 5

## CC(CN1CCCCC1)NC(=O)c1scnc1-c1ccccc1 (stereo not drawn)
[1]
  survivor count: 1 of 6

## N=C(N)SCCSC(=N)N
dose: 100.0 mg/kg/injection, schedule: Q01DX009 (ip), vehicle: saline sonified
  survivor count: 5 of 6
dose: 400.0 mg/kg/injection, schedule: Q04DX002 (ip), vehicle: saline
  survivor count: 0 of 6

## Cc1ccc(OP(=O)(Oc2ccc(C)cc2)Oc2ccc(C)cc2)cc1.Cc1ccc(OP(=O)(Oc2ccc(C)cc2)Oc2ccc(C)cc2)cc1.[Cl][Cu][Cl]
dose: 100.0 mg/kg/injection, schedule: Q04DX003 (ip), vehicle: Klucel (hydroxypropylcellulose) (HPC)
  survivor count: 6 of 6
dose: 200.0 mg/kg/injection, schedule: Q04DX003 (ip), vehicle: Klucel (hydroxypropylcellulose) (HPC)
  survivor count: 1 of 6
dose: 400.0 mg/kg/injection, schedule: Q04DX003 (ip), vehicle: Klucel (hydroxypropylcellulose) (HPC)
  survivor count: 0 of 6

## CN(C)C1=C(Cl)C(=O)c2ccccc2C1=O
[2]
  survivor count: 4 of 6

## O=c1oc(-c2cc([N+](=O)[O-])cc([N+](=O)[O-])c2Cl)nc2ccccc12
[3]
  T/C: 127 % of control
dose: 100.0 mg/kg/injection, schedule: Q01DX009 (ip), vehicle: Klucel (hydroxypropylcellulose) (HPC)
  survivor count: 3 of 6
[2]
  survivor count: 1 of 6

## Cc1ccc(C(C)(C)C[P+](C)(c2ccccc2)c2ccccc2)cc1
[3]
  survivor count: 6 of 6

## O=C1Cc2ccccc2N1C(=O)c1cccc(Br)c1
dose: 400.0 mg/kg/injection, schedule: Q01DX001 (ip), vehicle: Klucel (hydroxypropylcellulose) (HPC)
  survivor count: 3 of 6

## N#Cc1ncc(C(Cl)Cl)nc1Cl
dose: 100.0 mg/kg/injection, schedule: Q01DX009 (ip), vehicle: saline
  survivor count: 4 of 6
dose: 200.0 mg/kg/injection, schedule: Q01DX009 (ip), vehicle: saline
  survivor count: 1 of 6

## CCOC(=O)c1c(C#N)c2cnn(-c3ccccc3)c2n2cccc12
dose: 120.0 mg/kg/injection, schedule: Q01DX005 (ip), vehicle: saline with Tween-80
  survivor count: 6 of 6
[1]
  survivor count: 6 of 6

## O=C(C[N+](=O)[O-])c1ccc(Cl)cc1
dose: 200.0 mg/kg/injection, schedule: Q01DX009 (ip), vehicle: saline with Tween-80
  survivor count: 1 of 6

## COc1c2c(c(OC)c3c(OC)c4ccccc4c(OC)c13)CC(=O)CC2
dose: 12.5 mg/kg/injection, schedule: Q01DX009 (ip), vehicle: other
  survivor count: 5 of 5
dose: 25.0 mg/kg/injection, schedule: Q01DX009 (ip), vehicle: other
  survivor count: 5 of 5
dose: 50.0 mg/kg/injection, schedule: Q01DX009 (ip), vehicle: other
  survivor count: 5 of 5
dose: 100.0 mg/kg/injection, schedule: Q01DX009 (ip), vehicle: other
  survivor count: 5 of 5
dose: 200.0 mg/kg/injection, schedule: Q01DX009 (ip), vehicle: other
  survivor count: 5 of 5

## COc1cccc2c1C(=O)c1c(O)c3c(c(O)c1C2=O)CC(O)(C(N)=O)CC3OC1CC(N)C(O)C(C)O1 (stereo not drawn)
dose: 0.78 mg/kg/injection, schedule: Q01DX009 (ip), vehicle: water
  T/C: 131 % of control
dose: 1.56 mg/kg/injection, schedule: Q01DX009 (ip), vehicle: water
  T/C: 127 % of control
dose: 3.13 mg/kg/injection, schedule: Q01DX009 (ip), vehicle: water
  T/C: 142 % of control [5 of 6 alive]

## NC(=O)C1OC(n2cnc3c(N)ncnc32)C(O)C1O (stereo not drawn)
[4]
  T/C: 127 % of control
  survivor count: 1 of 6 and 4 of 6
dose: 25.0 mg/kg/injection, schedule: Q01DX005 (ip), vehicle: saline with Tween-80
  survivor count: 0 of 6
dose: 50.0 mg/kg/injection, schedule: Q01DX005 (ip), vehicle: saline with Tween-80
  survivor count: 0 of 6
dose: 100.0 mg/kg/injection, schedule: Q01DX005 (ip), vehicle: saline with Tween-80
  survivor count: 0 of 6
dose: 200.0 mg/kg/injection, schedule: Q01DX005 (ip), vehicle: saline with Tween-80
  survivor count: 0 of 6
